This assay has as its target Trop2 (trophoblast cell-surface antigen 2) (human) (UniProt P09758). As to the kind of experiment: co-IP; Flag-Trop2 and HA-Trop2 co-expressed in HEK293 cells; lysate precleared, anti-Flag antibody overnight at 4 °C, protein G beads, blot with anti-HA; cells untreated or treated with hRS7, N14 or N152 and lysed four hours later.

Protein sequences, listed by entry. Tags and fused reporters are not part of them. Residues count along the entry.
UniProt P09758, residues 27-323: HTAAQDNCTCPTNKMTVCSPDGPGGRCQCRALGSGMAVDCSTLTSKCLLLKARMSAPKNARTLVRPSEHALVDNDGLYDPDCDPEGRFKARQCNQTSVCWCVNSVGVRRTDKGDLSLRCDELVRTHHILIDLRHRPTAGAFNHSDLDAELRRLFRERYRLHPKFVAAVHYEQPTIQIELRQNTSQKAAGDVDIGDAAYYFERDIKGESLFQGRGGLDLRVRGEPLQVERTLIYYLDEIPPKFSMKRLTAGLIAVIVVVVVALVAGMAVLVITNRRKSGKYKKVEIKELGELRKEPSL

Results are given in words; binding and its absence hold for the method and conditions named. Binding seen in cells or lysates may run through a third protein. Some results given as binding are weak or reduced against the parent protein; the word gives no strength.

Take “Trop2 (trophoblast cell-surface antigen 2) (from UniProt P09758 27-323)”: the binding entry is listed as “binds”.

The values are drawn from paper PMC11510716.
